The supplement of paper PMC6331611
± gives the standard deviation of the averaged measurements. Over roughly 1,600 compounds, “normalized intracellular growth (luminescence, IQM-normalized) in RAW264.7 macrophages” has its median near 1; the lowest 2% begin near 0.43. Some of the results follow.

Test system: Salmonella enterica serovar Typhimurium SL1344
Test: normalized intracellular growth (luminescence, IQM-normalized) in RAW264.7 macrophages (fraction of plate interquartile mean); higher = more bacterial growth (less inhibition)
Details: 10 µM

SMILES	normalized intracellular growth (time point: T3 (3 h))	normalized intracellular growth (time point: Tfinal (~6 h))
CC(=O)Oc1ccccc1C(=O)O	1.04 ± 0.035	1 ± 0.13
N=C(N)NS(=O)(=O)c1ccc(N)cc1	0.962 ± 0.042	0.991 ± 0.12
COc1cc2nc(N(C)CCCNC(=O)C3CCCO3)nc(N)c2cc1OC (centres undefined)	0.981 ± 0.046	1.24 ± 0.12
Clc1ccc(Cn2c(CN3CCCC3)nc3ccccc32)cc1	0.966 ± 0.019	1.1 ± 0.071
CCCCCCCCCCCCCCCC(=O)OC[C@@H](NC(=O)C(Cl)Cl)[C@H](O)c1ccc([N+](=O)[O-])cc1	1.04 ± 0.037	0.822 ± 0.14
N[C@@H]1CONC1=O	0.986 ± 0.043	1.04 ± 0.044
CCCCC(CC)CCC(CC(C)C)OS(=O)(=O)O (centres undefined)	1.03 ± 0.031	1.1 ± 0.03
O=C(O)COCCN1CCN(C(c2ccccc2)c2ccc(Cl)cc2)CC1 (centres undefined)	1 ± 0.012	0.918 ± 0.11
O=C1c2ccccc2C(=O)C1c1ccc(Cl)cc1	1 ± 0.04	0.857 ± 0.16
COc1ccc2cc([C@H](C)CO)ccc2c1	0.984 ± 0.03	1.14 ± 0.21
C#C[C@]1(OC(C)=O)CC[C@H]2[C@@H]3CCC4=CC(=NO)CC[C@@H]4[C@H]3CC[C@@]21CC (mixture of isomers)	1.04 ± 0.056	0.943 ± 0.18
Clc1ccc(CO/N=C(\Cn2ccnc2)c2ccc(Cl)cc2Cl)c(Cl)c1	0.997 ± 0.045	1.3 ± 0.12
CC(=O)O[C@]1(C(C)=O)CC[C@H]2[C@@H]3C=C(Cl)C4=CC(=O)[C@@H]5C[C@@H]5[C@]4(C)[C@H]3CC[C@@]21C	0.992 ± 0.096	1.14 ± 0.14
Nc1ncnc2c1ncn2[C@@H]1O[C@H](CO)[C@@H](O)[C@H]1O	0.958 ± 0.081	1.05 ± 0.13
Clc1ccc(CSC(Cn2ccnc2)c2ccc(Cl)cc2Cl)cc1 (centres undefined)	1.03 ± 0.05	1.03 ± 0.14
C[n+]1cc2c3c(ccc2c2ccc4cc5c(cc4c21)OCO5)OCO3	0.702 ± 0.079	0.75 ± 0.03
CN(C)CCN(Cc1ccccc1)c1ccccn1	0.989 ± 0.058	1.02 ± 0.16
C=CC1=C(C)c2cc3[nH]c(cc4nc(cc5[nH]c(cc1n2)c(C)c5CCC(=O)O)C(CCC(=O)O)=C4C)c(C)c3C=C	0.973 ± 0.046	1.03 ± 0.14
CN1C(=O)CC(c2ccccc2)C1=O (centres undefined)	1.04 ± 0.05	1.07 ± 0.11
CC(=O)O[C@@]12CO[C@@H]1C[C@H](O)[C@@]1(C)C(=O)[C@H](O)C3=C(C)[C@@H](OC(=O)[C@H](O)[C@@H](NC(=O)OC(C)(C)C)c4ccccc4)C[C@@](O)([C@@H](OC(=O)c4ccccc4)[C@H]21)C3(C)C	0.978 ± 0.011	0.862 ± 0.053
COc1cc(O)c(C(=O)c2ccccc2)cc1S(=O)(=O)O	0.99 ± 0.044	1.01 ± 0.11
N[C@@H](Cc1cc(I)c(Oc2cc(I)c(O)c(I)c2)c(I)c1)C(=O)O	0.839 ± 0.077	1.12 ± 0.12
CCCCCCCCCC(=O)N[C@@H](Cc1c[nH]c2ccccc12)C(=O)N[C@@H](CC(N)=O)C(=O)N[C@@H](CC(=O)O)C(=O)N[C@@H]1C(=O)NCC(=O)N[C@@H](CCCN)C(=O)N[C@@H](CC(=O)O)C(=O)N[C@H](C)C(=O)N[C@@H](CC(=O)O)C(=O)NCC(=O)N[C@H](CO)C(=O)N[C@@H]([C@H](C)CC(=O)O)C(=O)N[C@@H](CC(=O)c2ccccc2N)C(=O)O[C@@H]1C [DAPTOMYCIN (5 millimolar/DMSO)]	1.01 ± 0.07	0.98 ± 0.21
N=C(N)NC(=O)Cc1c(Cl)cccc1Cl	1.14 ± 0.079	0.853 ± 0.29
CN(C)CC/C=C1/c2ccccc2Sc2ccc(Cl)cc21	0.999 ± 0.073	0.953 ± 0.1
CN(C)CCOC(c1ccccc1)c1ccccc1	0.981 ± 0.018	1.02 ± 0.03

Random excerpt: 5 entries already listed.
SMILES	normalized intracellular growth (time point: T3 (3 h))	normalized intracellular growth (time point: Tfinal (~6 h))
N[C@@H]1CONC1=O	0.986 ± 0.043	1.04 ± 0.044
O=C1c2ccccc2C(=O)C1c1ccc(Cl)cc1	1 ± 0.04	0.857 ± 0.16
CN(C)CCOC(c1ccccc1)c1ccccc1	0.981 ± 0.018	1.02 ± 0.03
CN1C(=O)CC(c2ccccc2)C1=O (centres undefined)	1.04 ± 0.05	1.07 ± 0.11
CN(C)CCN(Cc1ccccc1)c1ccccn1	0.989 ± 0.058	1.02 ± 0.16

Next part:

SMILES	normalized intracellular growth (time point: T3 (3 h))	normalized intracellular growth (time point: Tfinal (~6 h))
COc1ccc2[nH]c([S+]([O-])Cc3ncc(C)c(OC)c3C)nc2n1 (centres undefined)	1.05 ± 0.044	0.995 ± 0.12
C[C@]12CC[C@@H]3c4ccc(O)cc4CC[C@H]3[C@@H]1CC[C@@H]2O	0.999 ± 0.079	1.18 ± 0.13
CCN(CC)C(=O)c1cccc(C)c1	1.03 ± 0.016	1.117 ± 0.0076
CCN(CC)C(=O)c1cccnc1	1.08 ± 0.055	1.07 ± 0.069
CCCN(CCC)S(=O)(=O)c1ccc(C(=O)O)cc1	1.04 ± 0.093	1.09 ± 0.13
CCCCCCCCCCCCCCCCCCCCCCO	1.07 ± 0.025	1.22 ± 0.034
COc1ccc(O)cc1	1.05 ± 0.061	0.79 ± 0.29
CC(=O)NC(Cc1ccccc1)C(=O)O (centres undefined)	1 ± 0.073	1.01 ± 0.064
CCCCCCOC(=O)NC(=N)c1ccc(NCc2nc3cc(C(=O)N(CCC(=O)OCC)c4ccccn4)ccc3n2C)cc1	1.02 ± 0.01	0.97 ± 0.034
NCCCC(=O)O [gamma-AMINOBUTYRIC ACID]	0.9762 ± 0.0094	1.05 ± 0.096
CC12CCC(CC1=O)C2(C)C (centres undefined)	0.969 ± 0.012	1.09 ± 0.035
C[C@@H]1NC(=O)[C@@H](N)CNC(=O)[C@H](C2CCNC(=N)N2)NC(=O)/C(=C/NC(N)=O)NC(=O)[C@H](CNC(=O)CC(N)CCCN)NC1=O.N=C1NCC[C@H]([C@@H]2NC(=O)/C(=C/NC(N)=O)NC(=O)[C@H](CNC(=O)C[C@@H](N)CCCN)NC(=O)[C@H](CO)NC(=O)[C@@H](N)CNC2=O)N1	0.976 ± 0.016	0.966 ± 0.059
CN[C@@H]1[C@@H](O[C@H]2O[C@H](CO)[C@@H](N)[C@H](O)[C@H]2O)OC2C[C@@H](N)[C@@H](O[C@H]3[C@H](O)[C@@H](O)[C@H](N)C[C@@H]3N)OC2[C@@H]1O (some centres undefined)	0.963 ± 0.061	1.02 ± 0.2
Cc1onc(-c2ccccc2Cl)c1C(=O)N[C@@H]1C(=O)N2[C@@H]1SC(C)(C)[C@@H]2C(=O)O	0.945 ± 0.044	0.866 ± 0.064
CN[C@@H]1[C@H](O)[C@H](NC)[C@H]2O[C@@]3(O)C(=O)C[C@@H](C)O[C@H]3O[C@@H]2[C@H]1O	0.922 ± 0.027	1.02 ± 0.047
NS(=O)(=O)c1cc2c(cc1Cl)NC(C(Cl)Cl)NS2(=O)=O (centres undefined)	0.81 ± 0.047	1.04 ± 0.06
OCc1cccnc1	1.056 ± 0.0048	0.97 ± 0.051
CC(C)[N+](C)(CCOC(=O)C1c2ccccc2Oc2ccccc21)C(C)C	0.962 ± 0.079	1.08 ± 0.14
CN1CCC[C@@H]1Cc1c[nH]c2ccc(CCS(=O)(=O)c3ccccc3)cc12	1.02 ± 0.077	1.13 ± 0.27
CN(C)CCC=C1c2ccccc2COc2ccccc21	0.993 ± 0.068	0.919 ± 0.081
O=C(N[C@H](CO)[C@H](O)c1ccc([N+](=O)[O-])cc1)C(Cl)Cl	0.927 ± 0.049	0.163 ± 0.022
O=C(O)CCNC(=O)c1ccccc1	1.03 ± 0.03	1.06 ± 0.15
CCC[C@@H]1C[C@@H](C(=O)N[C@@H]([C@H]2O[C@H](SC)[C@H](O)[C@@H](O)[C@H]2O)[C@H](C)Cl)N(C)C1	0.976 ± 0.078	0.841 ± 0.06
C[n+]1c2cc(N)ccc2cc2ccc(N)cc21	1.2 ± 0.062	0.673 ± 0.08
CC(C)(CO)C(O)C(=O)NCCCO (centres undefined)	0.954 ± 0.097	0.98 ± 0.12
CCOc1ccc2ccccc2c1C(=O)N[C@@H]1C(=O)N2[C@@H]1SC(C)(C)[C@@H]2C(=O)O	0.9842 ± 0.0087	0.802 ± 0.22

Complete entries, quoted from the list. Order of values: normalized intracellular growth (time point: T3 (3 h)) | normalized intracellular growth (time point: Tfinal (~6 h))
CCCCC(CC)CCC(CC(C)C)OS(=O)(=O)O (centres undefined) as listed: 1.03 ± 0.031 | 1.1 ± 0.03
COc1ccc2[nH]c([S+]([O-])Cc3ncc(C)c(OC)c3C)nc2n1 (centres undefined) as listed: 1.05 ± 0.044 | 0.995 ± 0.12

Further records:

SMILES	normalized intracellular growth (time point: T3 (3 h))	normalized intracellular growth (time point: Tfinal (~6 h))
CCN(CC)CCNC(=O)c1cc(Cl)c(N)cc1OC	1.03 ± 0.093	1.27 ± 0.16
CC1=NN(c2ccccc2)C(=O)C1	0.995 ± 0.046	0.986 ± 0.21
Cn1cnc2c1c(=O)[nH]c(=O)n2C	1.01 ± 0.02	0.999 ± 0.033
C1CCC(C(CC2CCCCN2)C2CCCCC2)CC1 (centres undefined)	1.02 ± 0.058	0.933 ± 0.028
CN1CC(=O)N2[C@H](c3ccc4c(c3)OCO4)c3[nH]c4ccccc4c3C[C@@H]2C1=O	1.06 ± 0.072	0.783 ± 0.27
CCC/C=C\C=C/C(=O)N[C@@H](CC(N)=O)C(=O)NC(CC(N)=O)C(=O)N[C@@H](C(=O)N[C@H](CCCN)C(=O)N[C@@H](C(=O)N[C@@H](C(=O)N[C@@H](C(=O)N[C@H](C(=O)N[C@@H](Cc1ccccc1)C(=O)N[C@H](CCCN)C(=O)NC(C(=O)N[C@H](C(=O)NC(C(=O)NCC(=O)N[C@@H](CC(C)C)C(=O)N[C@H](C)C(=O)NC(C(=O)O)C1CCC(O)C(Cl)C1)C1CCC(O)CC1)[C@H](C)O)C1CCC(O)CC1)[C@H](C)O)C1CCC(O)CC1)C1CCC(O)CC1)[C@H](C)O)C1CCC(O)CC1 (some centres undefined) [RAMOPLANIN [A2 shown; 2mM]]	0.984 ± 0.051	1.17 ± 0.15
CC(=O)[C@@]1(O)CC[C@H]2[C@@H]3C[C@H](C)C4=CC(=O)C=C[C@]4(C)[C@@]3(F)[C@@H](O)C[C@@]21C	0.913 ± 0.062	0.873 ± 0.068
CCc1nc(N)nc(N)c1-c1ccc(Cl)cc1	1.08 ± 0.073	0.963 ± 0.052
COc1cc(C(=O)NCc2ccc(OCCN(C)C)cc2)cc(OC)c1OC	0.837 ± 0.065	0.89 ± 0.03
C#CCN[C@@H]1CCc2ccccc21	1.06 ± 0.027	1.12 ± 0.33
Cc1cc(C(C)(C)C)c(O)c(C(C)(C)C)c1	1.06 ± 0.046	0.834 ± 0.12
O=C(O)c1cn(C2CC2)c2cc(N3CCNCC3)c(F)cc2c1=O	1.14 ± 0.019	0.0127 ± 0.00088
CCOc1nc2cccc(C(=O)OCc3oc(=O)oc3C)c2n1Cc1ccc(-c2ccccc2-c2noc(=O)[nH]2)cc1	0.977 ± 0.072	1.13 ± 0.059
Cc1ccc(NC(=O)c2ccc(CN3CCN(C)CC3)cc2)cc1Nc1nccc(-c2cccnc2)n1	0.978 ± 0.042	1.16 ± 0.084
O=C(O)C(=O)O.[NH-][C@@H]1CCCC[C@H]1[NH-].[Pt+2]	1.12 ± 0.059	1.2 ± 0.081
CCOC(=O)COc1ccc2c(=O)cc(-c3ccccc3)oc2c1	1.03 ± 0.065	0.945 ± 0.32
Clc1ccc(C(Cn2ccnc2)OCc2ccsc2Cl)c(Cl)c1 (centres undefined)	0.977 ± 0.046	1.18 ± 0.079
C[C@](N)(Cc1ccc(O)c(O)c1)C(=O)O	1.04 ± 0.018	0.982 ± 0.017
O=C1/C(=C/c2cccs2)CCC/C1=C\c1cccs1	0.973 ± 0.059	1.06 ± 0.036
C[C@H]1c2cccc(O)c2C(=O)C2=C(O)[C@]3(O)C(=O)C(C(N)=O)=C(O)[C@@H](N(C)C)[C@@H]3[C@@H](O)[C@@H]21	0.73 ± 0.065	0.173 ± 0.025
O=C(O)c1cc(/N=N/c2ccc(O)c(C(=O)O)c2)ccc1O	0.988 ± 0.024	1.11 ± 0.019
CC(=O)NCCCS(=O)(=O)O	0.948 ± 0.025	0.841 ± 0.069
COc1ccc2c(c1OC)C(=O)O[C@@H]2[C@H]1c2c(cc3c(c2OC)OCO3)CCN1C	0.962 ± 0.046	1.0482 ± 0.00081
CCOC(=O)O[C@]1(C(=O)COC(=O)CC)CC[C@H]2[C@@H]3CCC4=CC(=O)C=C[C@]4(C)[C@H]3[C@@H](O)C[C@@]21C	1.03 ± 0.11	0.913 ± 0.12
C=C1c2c(Cl)ccc(O)c2C(=O)C2=C(O)[C@]3(O)C(=O)C(C(N)=O)=C(O)[C@@H](N(C)C)[C@@H]3[C@@H](O)[C@H]12.O=C(O)c1cc(S(=O)(=O)O)ccc1O	1.01 ± 0.065	0.0256 ± 0.0064
